Test results from PubChem BioAssay AID248 (DTP/NCI, 2004).
The list does not hold the whole screen: it gathers tests that were run many times, whatever their T/C, doses with no T/C, and many T/C values between a quarter and a half above the control. Other doses and runs of a compound stand elsewhere. T/C is the treated group as % of the vehicle group. Some doses have a count of surviving animals in place of a T/C: the source files T/C as zero there, which appears to mark a toxic dose or a test without result, not a measured value. Some survivor counts are full or nearly so, which does not show that the dose was tolerated: survival well below the control is almost never listed, so the zero probably covers shortened survival too. Counts of survivors are from the toxicity check (mostly the fifth day) where no day follows; animals may have died later. Schedules are NCI's codes, read here as Q, the interval in days (D) or hours (H), X, the number of doses. Some schedule codes hold Z or #, which are not explained here. Some entries were tested several times; their values stand side by side, smallest first. Where survival is the endpoint, the PubChem record calls one and a half times the control and up active, and a quarter to a half above the control has no call in these data; cut-offs in other NCI protocols can differ. Some T/C values carry the count of animals alive at the toxicity check (mostly the fifth day); without a count, all were alive then.

Test system: L1210 leukemia ip in BDF1 mice, survival T/C
Experiment: NCI In Vivo Anticancer Drug Screen. Data for tumor model L1210 Leukemia (intraperitoneal) in B6D2F1 (BDF1) mice
Conditions: T/C endpoint: mean survival time, higher T/C = longer survival
[1] = dose: 200.0 mg/kg/injection, schedule: Q01DX009 (ip), vehicle: saline
[2] = dose: 400.0 mg/kg/injection, schedule: Q01DX009 (ip), vehicle: saline
[3] = dose: 150.0 mg/kg/injection, schedule: Q01DX001 (ip), vehicle: saline
[4] = dose: 300.0 mg/kg/injection, schedule: Q01DX001 (ip), vehicle: saline
[5] = dose: 200.0 mg/kg/injection, schedule: Q01DX009 (ip), vehicle: Klucel (hydroxypropylcellulose) (HPC)
[6] = dose: 400.0 mg/kg/injection, schedule: Q01DX009 (ip), vehicle: Klucel (hydroxypropylcellulose) (HPC)
[7] = dose: 400.0 mg/kg/injection, schedule: Q04DX003 (ip), vehicle: Klucel (hydroxypropylcellulose) (HPC)
[8] = dose: 200.0 mg/kg/injection, schedule: Q01DX001 (ip), vehicle: saline
[9] = dose: 400.0 mg/kg/injection, schedule: Q01DX001 (ip), vehicle: saline
[10] = dose: 400.0 mg/kg/injection, schedule: Q04DX003 (ip), vehicle: saline with Tween-80
[11] = dose: 400.0 mg/kg/injection, schedule: Q04DX003 (ip), vehicle: saline
[12] = dose: 100.0 mg/kg/injection, schedule: Q01DX001 (ip), vehicle: saline

## NC(=Nc1ccc(N)cc1)c1ccc(C(N)=Nc2ccc(N)cc2)cc1
dose: 147.0 mg/kg/injection, schedule: Q01DX015 (ip), vehicle: water
  survivor count: 0 of 6
dose: 294.0 mg/kg/injection, schedule: Q01DX015 (ip), vehicle: water
  survivor count: 0 of 6

## C[n+]1csc(=S)[nH]1
[1]
  survivor count: 3 of 6
[2]
  survivor count: 0 of 6

## CCCC(C)C1(CC)C(=O)NC(=O)NC1=O (configuration not stated)
[3]
  survivor count: 2 of 6
dose: 160.0 mg/kg/injection, schedule: Q04DX003 (ip), vehicle: saline
  survivor count: 4 of 6
dose: 240.0 mg/kg/injection, schedule: Q01DX001 (ip), vehicle: saline
  survivor count: 0 of 6
[4]
  survivor count: 0 of 6
dose: 365.0 mg/kg/injection, schedule: Q01DX001 (ip), vehicle: saline
  survivor count: 0 of 6

## CCOC(=O)C1(C(C)C)OC2(O)CCCCCN2C1=O (configuration not stated)
dose: 400.0 mg/kg/injection, schedule: Q04DX002 (ip), vehicle: saline
  survivor count: 3 of 3

## Clc1ccc(Cl)c(NNc2cc(Cl)ccc2Cl)c1
[5]
  survivor count: 6 of 6
[6]
  survivor count: 0 of 6
[7]
  survivor count: 4 of 6

## CCC[n+]1nsc2ccccc21
[8]
  survivor count: 0 of 6
[9]
  survivor count: 0 of 6

## C[n+]1ccc(/C=C/c2ccnc3c(O)cccc23)c2ccccc21
dose: 30.0 mg/kg/injection, schedule: Q01DX001 (ip), vehicle: saline
  survivor count: 0 of 6
dose: 60.0 mg/kg/injection, schedule: Q01DX001 (ip), vehicle: saline
  survivor count: 0 of 6

## OCC(O)C1CCCCN1 (configuration not stated)
[2]
  survivor count: 2 of 6

## C[n+]1ccc(Nc2ccc(NC(=O)c3ccc(N)cc3)cc2)cc1
dose: 100.0 mg/kg/injection, schedule: Q01DX009 (ip), vehicle: water
  T/C: 130 % of control
dose: 150.0 mg/kg/injection, schedule: Q01DX009 (ip), vehicle: water
  T/C: 129 % of control [5 of 6 alive]

## Cc1c2oc3c(C)c([N+](=O)[O-])cc(C(=O)NC4C(=O)NC(C(C)C)C(=O)N5CCCC5C(=O)N(C)CC(=O)N(C)C(C(C)C)C(=O)OC4C)c3nc-2c(C(=O)NC2C(=O)NC(C(C)C)C(=O)N3CCCC3C(=O)N(C)CC(=O)N(C)C(C(C)C)C(=O)OC2C)c(N)c1=O (configuration not stated)
dose: 200.0 micrograms/kg/injection, schedule: Q01DX009 (ip), vehicle: saline + alcohol
  T/C: 127 % of control
dose: 300.0 micrograms/kg/injection, schedule: Q04DX003 (ip), vehicle: saline + alcohol
  T/C: 143 % of control
dose: 1600.0 micrograms/kg/injection, schedule: Q04DX003 (ip), vehicle: saline + alcohol
  survivor count: 8 of 8

## C[n+]1cccc(C(=O)NCCc2c[nH]c3ccccc23)c1
dose: 110.0 mg/kg/injection, schedule: Q01DX009 (ip), vehicle: saline with Tween-80
  survivor count: 6 of 6
dose: 170.0 mg/kg/injection, schedule: Q01DX009 (ip), vehicle: saline with Tween-80
  survivor count: 0 of 6
[4]
  survivor count: 2 of 6

## CCCc1nc2ccccc2[nH]1
[10]
  survivor count: 0 of 6

## O=C(O)C1C[n+]2ccccc2O1 (configuration not stated)
dose: 100.0 mg/kg/injection, schedule: Q01DX009 (ip), vehicle: saline
  survivor count: 5 of 6
[1]
  survivor count: 3 of 6
[11]
  survivor count: 3 of 6

## C=CCc1cn(C2CC(O)C(CO)O2)c(=O)[nH]c1=O (configuration not stated)
dose: 200.0 mg/kg/injection, schedule: Q01DX001 (ip), vehicle: saline, evaluated on day 30
  T/C: 96 and 101 % of control
dose: 200.0 mg/kg/injection, schedule: Q01DX001 (ip), vehicle: saline, run until all animals had died
  T/C: 98 and 104 % of control
dose: 400.0 mg/kg/injection, schedule: Q01DX001 (ip), vehicle: saline, evaluated on day 30
  T/C: 101 and 104 % of control
dose: 400.0 mg/kg/injection, schedule: Q01DX001 (ip), vehicle: saline, run until all animals had died
  T/C: 103 and 106 % of control
[2]
  T/C: 126 and 136 % of control
dose: 800.0 mg/kg/injection, schedule: Q01DX009 (ip), vehicle: saline
  T/C: 136 % of control
dose: 1600.0 mg/kg/injection, schedule: Q01DX009 (ip), vehicle: saline
  T/C: 125 % of control

## O=C(O)C(O)C(O)C(O)C(O)C(O)CO.[Fe] (configuration not stated)
[3]
  survivor count: 1 of 6
[4]
  survivor count: 0 of 6

## COC1=CC(=O)C=C(OC(C)=O)C12Oc1c(Cl)c(C)c(Cl)c(O)c1C2=O (configuration not stated)
dose: 100.0 mg/kg/injection, schedule: Q04DX002 (ip), vehicle: saline with Tween-80
  survivor count: 0 of 3
dose: 200.0 mg/kg/injection, schedule: Q04DX002 (ip), vehicle: saline with Tween-80
  survivor count: 0 of 3
dose: 400.0 mg/kg/injection, schedule: Q04DX002 (ip), vehicle: saline with Tween-80
  survivor count: 0 of 3

## COc1ccc(C(=O)NN2C(N)=NC(N)=NC2(C)C)cc1
[11]
  survivor count: 0 of 6

## Cc1ncc(CO)c(Nc2ccccc2Cl)n1
dose: 100.0 mg/kg/injection, schedule: Q04DX003 (ip), vehicle: Klucel (hydroxypropylcellulose) (HPC)
  survivor count: 3 of 6
dose: 200.0 mg/kg/injection, schedule: Q04DX003 (ip), vehicle: Klucel (hydroxypropylcellulose) (HPC)
  survivor count: 0 of 6
[7]
  survivor count: 0 of 6

## CC(C)(C)/[N+]([O-])=[N+](\[O-])C(C)(C)C (tested in a mixture with another compound)
[7]
  survivor count: 1 of 6

## CCC(CC)NC(CC)COC(=O)c1ccc(N)cc1 (configuration not stated)
dose: 300.0 mg/kg/injection, schedule: Q01DX001 (ip), vehicle: other
  survivor count: 1 of 6

## O=c1oc(-c2ccccc2)nc2c(Cl)ccc(Cl)c12
dose: 150.0 mg/kg/injection, schedule: Q01DX009 (ip), vehicle: Klucel (hydroxypropylcellulose) (HPC)
  survivor count: 3 of 6

## CCOC(=O)c1ccc(NC(=S)NC(=O)c2cccc([N+](=O)[O-])c2)cc1
dose: 100.0 mg/kg/injection, schedule: Q01DX001 (ip), vehicle: saline with Tween-80
  survivor count: 6 of 6
[2]
  survivor count: 1 of 3 and 4 of 6

## CCc1ccc(C(=O)O)oc1=O
[4]
  survivor count: 3 of 6

## CN(C)C(=O)c1cc(NC(=O)Nc2cccc(C3=NCCN3)c2)cc(NC(=O)Nc2cccc(C3=NCCN3)c2)c1
dose: 15.0 mg/kg/injection, schedule: Q01DX Z (ip), vehicle: saline
  survivor count: 0 of 6
dose: 30.0 mg/kg/injection, schedule: Q01DX Z (ip), vehicle: saline
  survivor count: 0 of 6
dose: 60.0 mg/kg/injection, schedule: Q01DX Z (ip), vehicle: saline
  survivor count: 0 of 6
dose: 120.0 mg/kg/injection, schedule: Q01DX Z (ip), vehicle: saline
  survivor count: 0 of 6

## CC(=O)N1c2ccccc2Sc2cc(C(O)(C(F)(F)F)C(F)(F)F)ccc21
dose: 200.0 mg/kg/injection, schedule: Q01DX009 (ip), vehicle: saline with Tween-80
  survivor count: 5 of 6
[10]
  survivor count: 5 of 6

## N#CC(CCCc1cccc(N2CN=C(N)N=C2N)c1)c1ccccc1 (configuration not stated)
[12]
  survivor count: 0 of 6
[8]
  survivor count: 0 of 6

## CN(C)c1ccc(-c2nc3nc[nH]c(=O)c3[nH]2)cc1
[12]
  survivor count: 0 of 4
[8]
  survivor count: 0 of 4
[9]
  survivor count: 0 of 4

## CN/N=C/c1ccc(C(=O)NC(C)C)cc1
[7]
  survivor count: 3 of 6

## CC1=CC(=C(c2ccccc2)c2ccccc2)C=C(C)C1=O
[5]
  survivor count: 5 of 6
[6]
  survivor count: 2 of 6

## CC(=O)OC1CCC2(C)C(=CCC3C2CCC2(C)C(C(C)N)CCC32)C1 (configuration not stated)
dose: 200.0 mg/kg/injection, schedule: Q01DX001 (sc), vehicle: steroid suspending solution
  survivor count: 4 of 4

## C[N+](C)(C)CCCC1C2CCC(C2)C1C[N+](C)(C)C (configuration not stated)
dose: 50.0 mg/kg/injection, schedule: Q01DX009 (ip), vehicle: saline
  survivor count: 0 of 6
dose: 50.0 mg/kg/injection, schedule: Q04DX003 (ip), vehicle: saline
  survivor count: 1 of 6
dose: 100.0 mg/kg/injection, schedule: Q04DX003 (ip), vehicle: saline
  survivor count: 0 of 6
dose: 200.0 mg/kg/injection, schedule: Q04DX003 (ip), vehicle: saline
  survivor count: 0 of 6
[11]
  survivor count: 0 of 6
